From PMC7819943, “Rice protein-binding microarrays: a tool to detect cis-acting elements near promoter regions in rice”
This is one part of the list.

biological target: T1, OsSMF1 (Oryza sativa, UniProt Q6ZLB0 1-436); test: protein-binding microarray (RPBM); PBS, 2% BSA, 51.3 ng/ul salmon testes DNA, 50 uM zinc acetate, 200 nM TF, 25 C, 1 h; high values mean tight binding; conditions: protein: recombinant; tags: N-terminal polyhistidine and DsRed monomer fusion (pET32a); chain copies: 2; label: CyDye5-dUTP incorporated in the synthesized complementary strand; 3' TTTTT single-stranded linker to array surface; dsDNA, one strand shown
T1 sequence: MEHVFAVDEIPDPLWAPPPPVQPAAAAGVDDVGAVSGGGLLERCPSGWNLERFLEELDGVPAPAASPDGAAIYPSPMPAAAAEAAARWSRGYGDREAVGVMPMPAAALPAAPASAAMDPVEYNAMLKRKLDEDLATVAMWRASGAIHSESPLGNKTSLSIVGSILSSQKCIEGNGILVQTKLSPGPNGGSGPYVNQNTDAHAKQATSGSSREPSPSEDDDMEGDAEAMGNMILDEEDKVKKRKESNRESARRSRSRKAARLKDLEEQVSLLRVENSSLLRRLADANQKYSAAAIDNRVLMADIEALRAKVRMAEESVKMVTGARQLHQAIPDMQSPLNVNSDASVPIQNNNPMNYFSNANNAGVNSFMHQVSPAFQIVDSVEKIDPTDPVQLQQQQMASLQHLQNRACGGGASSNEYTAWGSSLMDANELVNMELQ
Outline: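 Binding signal is reported as fluorescence intensity per feature (arbitrary units) from an Axon 4000B scanner. Incubation used 200 nM of each Ni–NTA-purified, N-terminally polyhistidine- and DsRed-fused transcription factor from E. coli BL21-CodonPlus on a double-stranded custom Agilent array for 1 h at 25 °C, with 50 µM zinc acetate in the buffer, followed by washing.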

| Sequence | binding signal |
| --- | --- |
| CAGCTAGCTGCTCCAACTTCGCGTTGGTGCTTTAGTGACGCGGAGTCACCTAGTGCAG | 3540 fluorescence intensity (a.u.) |
| ATAGTATAAAAGTAATGTGATGTGGCTTTATGAGAGAAAACGGAGTCACCTAGTGCAG | 3780 fluorescence intensity (a.u.) |
| AGCCCGATGATAAAATTGTCGTCCGCTCGCGCCAGCTCATCGGAGTCACCTAGTGCAG | 5860 fluorescence intensity (a.u.) |
| AGGTCTCCCACTCCTAGTCATCATCATCATCATCTCCCTACGGAGTCACCTAGTGCAG | 7430 fluorescence intensity (a.u.) |
| TTCATATCATATACGTACACGTGGAATAATTTGTAATTATCGGAGTCACCTAGTGCAG | 9010 fluorescence intensity (a.u.) |
| CCAGGCACCGACCTGTAGTTGCATCAGCAAACCATGGCTGCGGAGTCACCTAGTGCAG | 4690 fluorescence intensity (a.u.) |
| AAGAATCTTTTAGTATTTGGTGCATGACAAGGCACTGATGCGGAGTCACCTAGTGCAG | 4480 fluorescence intensity (a.u.) |
| CAATGAGGCTGATGGTGTGGAGGATTAGGTGTAGCCTTGGCGGAGTCACCTAGTGCAG | 5200 fluorescence intensity (a.u.) |
| CTGCGACGACGAGATCTTGTCTAGTAGACCGTGAATATATCGGAGTCACCTAGTGCAG | 3330 fluorescence intensity (a.u.) |
| CTATCATAATTCATAAATCATCGTATACGCGCTTGTCCAGCGGAGTCACCTAGTGCAG | 3910 fluorescence intensity (a.u.) |
| ACACTAACACGTGGCGCAATCCTCATCTCTCGCTCCGGATCGGAGTCACCTAGTGCAG | 11700 fluorescence intensity (a.u.) |
| GCCCTCGGCGGCTCGGCCGCTTGGCGCCACGTGTGCGGTGCGGAGTCACCTAGTGCAG | 19000 fluorescence intensity (a.u.) |
| ACCTCGTGGCCACTGTTGCATGGTCAACTTTCCCACCCATCGGAGTCACCTAGTGCAG | 3420 fluorescence intensity (a.u.) |
| GGTTCCTGGCATCCAATGGAAATTTGTAACCACCTCATCACGGAGTCACCTAGTGCAG | 4630 fluorescence intensity (a.u.) |
| CGCGGGAATCAATCAATCGCCGTTCGCGTCGCGCCACGAGCGGAGTCACCTAGTGCAG | 4060 fluorescence intensity (a.u.) |
| CCCCATTTCGTGACGCGTCCTGGGATCACGAAGCAGATACCGGAGTCACCTAGTGCAG | 4880 fluorescence intensity (a.u.) |
| GCCGCCGCCGGAGTCCAGCCGCCGCACCTCCGCGCCCCGCCGGAGTCACCTAGTGCAG | 28400 fluorescence intensity (a.u.) |
| TGCCAGGCGTTGGTGCACGTGGCGTCAACAGCGCGACGGTCGGAGTCACCTAGTGCAG | 7400 fluorescence intensity (a.u.) |
| CATCCAGGCGTGTATAACAACACATCACCACCATTGCAAACGGAGTCACCTAGTGCAG | 4140 fluorescence intensity (a.u.) |
| CGCTGCCTTCGCCGTCGTGGCTTTGCGCCGCCTCCGCCAACGGAGTCACCTAGTGCAG | 4150 fluorescence intensity (a.u.) |
| TAATCTCTACAGTACAAGTTCTCAAGAAAATTACACTTTGCGGAGTCACCTAGTGCAG | 3230 fluorescence intensity (a.u.) |
| AAAGGGCAGGCACATCGCTTTCGGGCCCTGTCACGTACCCCGGAGTCACCTAGTGCAG | 3920 fluorescence intensity (a.u.) |
| TTAGTTTTATATAAAATGTGTCACATGATAATAGTAGTACCGGAGTCACCTAGTGCAG | 3870 fluorescence intensity (a.u.) |

Not a retest: entries from further up.

| Sequence | binding signal |
| --- | --- |
| ACACTAACACGTGGCGCAATCCTCATCTCTCGCTCCGGATCGGAGTCACCTAGTGCAG | 11700 fluorescence intensity (a.u.) |
| GCCCTCGGCGGCTCGGCCGCTTGGCGCCACGTGTGCGGTGCGGAGTCACCTAGTGCAG | 19000 fluorescence intensity (a.u.) |
